Experiment [1] has as its target GST-dCYLD (Drosophila melanogaster). Briefly: pull-down; agarose-immobilised GST-dCYLD incubated with total cell lysate of S2 cells transfected with Flag-RBR-C; immunoblot with anti-Flag antibody; only the target purified. On the technique in general: A western blot detects proteins with antibodies after separation by electrophoresis.
Experiment [2] has the same target. Briefly: pull-down; immobilised GST-dCYLD incubated with LUBEL-RBR-C purified from E. coli (500 ng of candidate protein, 50 mM Tris-HCl pH 7.5, 150 mM NaCl, 0.1% NP-40, 5 mM DTT, 4°C, 3 h); immunoblot with anti-LUBEL-RBR antibody; both purified.

No constants are given. Whether binding was seen depends on the method and setting. Binding calls can cover weak binding; strength is not graded here. For some assays here: In cells and extracts the contact can be indirect. For some assays here: Where a sequence is shown, tags or fusion partners need not be part of it.

B1: Flag-LUBEL-RBR-C (domain or fragment, UniProt Q8IPJ3-1 2512-2892)
chain: QECELCMNSYPMNQMVSMLKCLHKCCKQCAKSYFTVQITDRSINDCSCPFCKLPELSNEAQHEDEHLEYFSNLDIFLKSILDNDVHELFQRKLRDRSLLQDPNFKWCIQCSSGFFARPKQKRLICPDCGSVTCAQCRKPWERQHEGSSCEAYLEWKRENDPELQAQGVQEHLAQNGIDCPKCKFRYSLARGGCMHFTCTQCKFEFCYGCARPFMMGAKCTVSTYCAKLGLHAHHPRNCLFYLRDKIPLQLQFLLKEQNVKFDTEPMQIKDESSSSSKARAQARCPIPLQKETPQGLVDTVCNTEVPDKHAGMCRTHYVEYLAGKVAKAGIDPLPIFDLTDCVQELRRRGIALPERGPWDTDEIYKNMCSEVIKKHIPLKSA
In the case of B1, the binding entry in experiment [1] was “binds”.

B2: LUBEL-RBR-C, recombinant (domain or fragment, UniProt Q8IPJ3-1 2512-2892)
chain: QECELCMNSYPMNQMVSMLKCLHKCCKQCAKSYFTVQITDRSINDCSCPFCKLPELSNEAQHEDEHLEYFSNLDIFLKSILDNDVHELFQRKLRDRSLLQDPNFKWCIQCSSGFFARPKQKRLICPDCGSVTCAQCRKPWERQHEGSSCEAYLEWKRENDPELQAQGVQEHLAQNGIDCPKCKFRYSLARGGCMHFTCTQCKFEFCYGCARPFMMGAKCTVSTYCAKLGLHAHHPRNCLFYLRDKIPLQLQFLLKEQNVKFDTEPMQIKDESSSSSKARAQARCPIPLQKETPQGLVDTVCNTEVPDKHAGMCRTHYVEYLAGKVAKAGIDPLPIFDLTDCVQELRRRGIALPERGPWDTDEIYKNMCSEVIKKHIPLKSA
Take B2: the binding entry in experiment [2] is “binds”.

The values above are taken from PMC5090701.
